68 sequences from PubChem BioAssay AID1347426 (Functional Genomics Laboratory (NCATS/FGL), 2020) can be followed below.

Among all 31,000 sequences or so, about 1,400 (4.5%) were called active.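 Rule for the calls: active = median seed-adjusted z-score above 1 or below -1; inactive = the rest.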 The list shows a part of the results.

The nature of the assay: Novel Modifiers of Survival Motor Neuron (SMN) Protein: Gene Identification via Genome-wide siRNA Screen.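 Note: luminescence tracks full-length SMN protein made from the SMN2 reporter.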 The conditions noted are these: HEK293T SMN2-luciferase reporter, siRNA knockdown, 72 h; actives lie on both sides. The method, boiled down:
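Genome-wide siRNA screen (10418 genes, 3 siRNAs each, 1 pmol per well) by reverse transfection in HEK293T cells stably carrying an SMN2-luciferase reporter; luminescence after 72 hours, normalized to negative-control siRNA, log10-transformed, MAD-scored.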
On the technique in general: In a reporter assay the amount or activity of a reporter protein is the signal.
On to GCAGGUCUGUGCAAUAGCATT against ABCA9, for which the median seed-adjusted z-score was inactive: -0.139.

With GGACAUAGAUCAGAAGCUATT against CDK7, the median seed-adjusted z-score is inactive: -0.524.

Regarding GGAUCCAUUUUGUUGGACATT against NKX6-1, the median seed-adjusted z-score is inactive: -0.0317.

In the case of GCAUUAGCCUCAUUGGUCUTT against IPO5, the median seed-adjusted z-score was inactive: -0.299.

As for CCCUGAAAGUGUUAAGUCUTT against ZNF329, the median seed-adjusted z-score is inactive: -0.0877.

With GCAGAGACCAUGAUCGUUUTT against COPA, the median seed-adjusted z-score was inactive: -0.807.

In the case of GGACAUGUCACACCAUUAUTT against SP6, the median seed-adjusted z-score is inactive: -0.176.

Consider GAGAUAACAUCAGUAGAAATT against FGF10, for which the median seed-adjusted z-score was inactive: 0.

Turning to CUAUGGACCAGUCAAAUAATT against NDUFB7, the median seed-adjusted z-score is inactive: -0.379.

Consider CCGCAGAUGAGAUCCCUAATT against SORBS3, for which the median seed-adjusted z-score was inactive: 0.106.

Consider GGAUGGUUAUAACUACACUTT against S100A11, for which the median seed-adjusted z-score is inactive: 0.702.

In the case of AGUCUGUUUUGAGAUCGAATT against CARD8, the median seed-adjusted z-score is inactive: 0.115.

On to GUACUUCAAUAGUAGCAGATT against ASAH1, for which the median seed-adjusted z-score is inactive: 0.421.

Take CGACAAUUCUUCUAGACAATT against TTC3: the median seed-adjusted z-score is active: -1.17.

Take CUCUUGCUACGGAGGCUACTT against NKX2-6: the median seed-adjusted z-score was inactive: -0.00448.

For the sequence GCUUAAAAUAGAACGUGAATT against SPINT4, the median seed-adjusted z-score was inactive: 0.354.

For the sequence UGCCUUGGUUCAUCCCUAATT against ATP6V0E1, the median seed-adjusted z-score is inactive: -0.0658.

CCAAGAGUCUUAAUGCCUUTT against HDAC3: the median seed-adjusted z-score was inactive: 0.579.

As for GAGGAAGUAUAACACCAAATT against RDH13, the median seed-adjusted z-score is inactive: 0.208.

As to GCUUGACUUCAAAACUAAATT against SERPIND1, the median seed-adjusted z-score is inactive: 0.133.

Consider GACCGUUUGUGGUAGCAGUTT against ACOT9, for which the median seed-adjusted z-score was inactive: 0.58.

On to CCAUGAUACUCCACUCCCATT against GUCA2A, for which the median seed-adjusted z-score was inactive: 0.121.

With GACUUGACCGAGUACCUCATT against UQCRC1, the median seed-adjusted z-score is inactive: -0.284.

On to AGAAUUAUAUGAAACACCUTT against CCL13, for which the median seed-adjusted z-score is inactive: 0.135.

Take CAGAUUUUCUAUGGACUUATT against ZNF516: the median seed-adjusted z-score is inactive: 0.56.

Turning to GGUGUAUCAGAUGCUCAAATT against MAPK13, the median seed-adjusted z-score was inactive: -0.491.

Consider CCUUCAUUAAUGAGUCAUATT against ZNF426, for which the median seed-adjusted z-score was inactive: 0.2.

For the sequence GCAUGAACCAGUUAUCACATT against SCYL2, the median seed-adjusted z-score is inactive: -0.0652.

For CAGAUGAAAUACUACUUCUTT against ARD1A, the median seed-adjusted z-score was active: -1.05.

As to GUCUGUUUCUUCGAAAUUATT against VPS35, the median seed-adjusted z-score is inactive: -0.511.

For the sequence GGAGUUCACCAAGUCCUUATT against CHP2, the median seed-adjusted z-score was inactive: 0.364.

With GAAGAUGGGUAUAUCCUUUTT against LIPM, the median seed-adjusted z-score was inactive: -0.00856.

In the case of GGAUGUAUGAGGCUCAUUUTT against CNTNAP4, the median seed-adjusted z-score is inactive: -0.414.

CCAUUUGAAUUACCACGUATT against GRIA3: the median seed-adjusted z-score was inactive: -0.358.

As for GCAGACAAGUCAACCGUGATT against FRK, the median seed-adjusted z-score is inactive: -0.14.

Regarding CCUAAUUACUGCUAUCGUUTT against PPP6C, the median seed-adjusted z-score is inactive: -0.0212.

As to CAUUGUUAGUUCAUCAAGATT against RASEF, the median seed-adjusted z-score was inactive: 0.299.

Consider GGACCAAGAGGAUUGAGUATT against CLSTN2, for which the median seed-adjusted z-score was inactive: 0.

As for GCUGAUGAAUCCGAAAAUATT against SLC7A14, the median seed-adjusted z-score is inactive: 0.132.

As for CUGCCGGAGUUACAACUCATT against DPF3, the median seed-adjusted z-score was inactive: 0.242.

Consider CCUUCUGAAAGAACGCAAATT against ABCA8, for which the median seed-adjusted z-score is inactive: -0.666.

For the sequence AGAACAGGCGUAUGAAGAATT against HOXD12, the median seed-adjusted z-score was inactive: -0.18.

GCCCUAUAAAUGUGGAGAATT against ZSCAN20: the median seed-adjusted z-score was inactive: -0.099.

For CAGUGAGUAUAGAAACGGATT against NLP, the median seed-adjusted z-score was inactive: -0.186.

Regarding GAACAUAUGGUGCAUGAUATT against ZFY, the median seed-adjusted z-score is inactive: -0.128.

With GGCAGAUAACUGAACGAGATT against HECW2, the median seed-adjusted z-score was inactive: 0.38.

On to UGACAGAGAUUUGACACCATT against PRSS33, for which the median seed-adjusted z-score was inactive: -0.588.

Regarding GCAGGAAAAUCGCGAGGGATT against PDLIM2, the median seed-adjusted z-score was inactive: 0.267.

As to CAAACUUCACUAUGCAUUUTT against CHP2, the median seed-adjusted z-score was inactive: 0.364.

GGAUAGUCGUGAUGCCCAUTT against HDAC7: the median seed-adjusted z-score was inactive: -0.41.

Turning to GCCUGUUCUGAAUUGGUGATT against ZCCHC3, the median seed-adjusted z-score was inactive: -0.849.

For the sequence GGAAAUCCUUGGGUUUGAATT against SRRM1, the median seed-adjusted z-score is inactive: -0.861.

Turning to CCAGUAGCCUAUUACCGAATT against SLITRK2, the median seed-adjusted z-score is inactive: -0.246.

On to CAAUACUAGUUCUCGUUUATT against PDZD8, for which the median seed-adjusted z-score is inactive: 0.0582.

Regarding GGCUGACAAUUACAACUAUTT against PKP1, the median seed-adjusted z-score is inactive: -0.99.

In the case of GCAUGAUGAGCAGAAAGGATT against HR, the median seed-adjusted z-score is inactive: 0.751.

Turning to CGAUUAUCAUGUUGACGGATT against TUBGCP3, the median seed-adjusted z-score is inactive: -0.685.

For the sequence GCAAUGGAGGAAAGAUAUATT against HOOK1, the median seed-adjusted z-score is inactive: 0.202.

On to GGAUGUUUAUCGUCGCAUUTT against TJP1, for which the median seed-adjusted z-score was inactive: 0.0302.

On to GCUACGCAAUUGAAAAGCATT against UGT2B4, for which the median seed-adjusted z-score was inactive: 0.0707.

As for GAGACGAUUUAGAAGCUUUTT against CSNK1G3, the median seed-adjusted z-score was inactive: 0.

As to CCCUCAUGGACAUCGCCUATT against PCGF2, the median seed-adjusted z-score is inactive: 0.187.

For the sequence GCAUAGUGAAGGCCCUGAATT against PRDX5, the median seed-adjusted z-score is inactive: -0.0386.

Turning to GCAUAGAUGGAACCCAUUATT against DPYSL3, the median seed-adjusted z-score was inactive: -0.226.

As to CUCUGUAGAUAAACCCAUATT against HSF2, the median seed-adjusted z-score is inactive: -0.0228.

GCAUCGUAAUUCCCUAUGATT against SLC10A2: the median seed-adjusted z-score was inactive: -0.219.

For GCGUGUCCAUCUUAGACUUTT against ZNF616, the median seed-adjusted z-score was inactive: -0.0874.

As to UGCCUUUAAUAAGCUCCAATT against IL10, the median seed-adjusted z-score is inactive: 0.0967.
